These results are taken from the supplement of paper PMC10727501.

Conditions in all cases: 10 µM; pre-incubation: 30-90 min
The test system of test [1] is Danio rerio larvae (5 dpf, TLF). Nature of the test: OMR-Perf (SSMD vs DMSO vehicle); higher = higher than vehicle (e.g. higher dark-flash O-bend response probability, or better optomotor performance).
Test [2] has the same test system. The experiment in a line: Prob-Test (SSMD vs DMSO vehicle); higher = higher than vehicle (e.g. higher dark-flash O-bend response probability, or better optomotor performance).
For test [3] the test system is unchanged. The experiment in a line: Prob-Naive (SSMD vs DMSO vehicle); higher = higher than vehicle (e.g. higher dark-flash O-bend response probability, or better optomotor performance).
The test system is the same in test [4]. The experiment in a line: Prob-Train (SSMD vs DMSO vehicle); higher = higher than vehicle (e.g. higher dark-flash O-bend response probability, or better optomotor performance).

The list shows a part of the results. This data set is noisy: repeats of one test often differ as much as different tests do.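 Researchers measured free-swimming zebrafish larvae's O-bend response probability to dark flashes (naive: first five; training: remaining flashes of four 60-flash blocks; test: later 60-flash block) and OMR turning toward alternating leftward/rightward LED motion. Six treated larvae were compared to sixty 0.1% DMSO controls, with |SSMD|≥2 marking a hit.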

`Nc1ncnc2nc[nH]c12.Nc1ncnc2nc[nH]c12.O=S(=O)(O)O` [Adenine sulfate] came in with an OMR-Perf in test [1] of 0.772. Also, the Prob-Test in test [2] was 0.0828. For the same molecule, the Prob-Naive in test [3] is -0.106. In test [4], this molecule returned a Prob-Train of 0.0816.

In the case of `O=C([O-])[C@H](O)[C@@H](O)[C@H](O)[C@H](O)CO.[Na+]` [Sodium Gluconate], the OMR-Perf in test [1] was -0.221. For the same molecule, in test [2], the Prob-Test is -0.0996. In addition, the Prob-Naive in test [3] is 0.0912. Moreover, in test [4], the Prob-Train was 0.217.

For `Cc1ncc(-c2ccnc(Nc3ccc(S(C)(=O)=O)cc3)n2)n1C(C)C`, in test [1], the OMR-Perf was -0.739. Also, in test [2], the Prob-Test is 0.402. The same molecule had a Prob-Naive in test [3] of 0.289. Also, in test [4], the Prob-Train amounted to 0.184.

Regarding `CC(C)[C@@H](C)/C=C/[C@@H](C)[C@@H]1CC[C@H]2C3=CC=C4C[C@@H](O)CC[C@]4(C)[C@@H]3CC[C@@]21C` [Ergosterol], the OMR-Perf in test [1] is -0.202. The Prob-Test in test [2] is 0.637. The Prob-Naive in test [3] was -0.602. The molecule also yielded a Prob-Train in test [4] of 0.475.

In test [1], `CCN(CC)CCNC(C(=O)OCCC(C)C)c1ccccc1.Cl.Cl` (stereo unspecified) [Camylofin Chlorhydrate] returned an OMR-Perf of 0.737. Also, the Prob-Test in test [2] came to 1.31. In test [3], this molecule gave a Prob-Naive of 0.0311. For the same molecule, the Prob-Train in test [4] is 0.203.

Molecule `Nc1nc(CC(=O)Nc2ccc(CCNC[C@H](O)c3ccccc3)cc2)cs1` [Mirabegron] came in with an OMR-Perf in test [1] of 0.364. Also, the Prob-Test in test [2] was -0.323. In test [3], the Prob-Naive was -0.156. The Prob-Train in test [4] was 0.131.

For the molecule `O=C(O)Cc1cc(I)c(Oc2ccc(O)c(I)c2)c(I)c1` [Tiratricol], in test [1], the OMR-Perf was -0.181. Moreover, the Prob-Test in test [2] is -0.675. For the same molecule, in test [3], the Prob-Naive was -0.329. In addition, the Prob-Train in test [4] was -0.834.

On to `O=C(Nc1ccc(S(=O)(=O)Nc2ccccc2Cl)c(Cl)c1)c1ccccn1`, for which the OMR-Perf in test [1] is -0.0654. The Prob-Test in test [2] amounted to 0.44. The Prob-Naive in test [3] was -2.31. Also, the Prob-Train in test [4] was -0.245.

`Cc1nc(-c2ccc(OCC(C)C)c(C#N)c2)sc1C(=O)O` [Febuxostat]: in test [1], the OMR-Perf was -1.3. The Prob-Test in test [2] was -0.101. Moreover, the Prob-Naive in test [3] was -0.554. Also, the Prob-Train in test [4] was -0.708.
